Results on eleven compounds are retold here after paper PMC7558399, “In Vitro Selective Growth-Inhibitory Activities of Phytochemicals, Synthetic Phytochemical Analogs, and Antibiotics against Diarrheagenic/Probiotic Bacteria and Cancer/Normal Intestinal Cells” (Pharmaceuticals, 2020).

Series [1] relates to normal cells/cancer cells. The experiment in a line: Selective index SIc. The following applies: SIc = log (IC50 against FHs 74 Int / x¯ -IC50 against cancer intestinal cells).
In series [2] the test system is normal cells/diarrheagenic bacteria. The experiment in a line: Selective index SIa. The following applies: SIa = log (IC80 against FHs 74 Int / x¯ -MIC against diarrheagenic strains).
The test system of series [3] is probiotic bacteria/diarrheagenic bacteria. The experiment in a line: Selective index SIb. The following applies: SIb = log (x¯ -MIC against probiotic strains / x¯ -MIC against diarrheagenic strains).

Where a name gives a salt, the structure may show the parent alone.

Consider `Oc1cccc2cccnc12` [8HQ, 8-hydroxyquinoline], for which the “SI (c) normal cells/cancer cells” value in series [1] turned out to be 1.1.
With `COc1ccc2cc3[n+](cc2c1OC)CCc1cc2c(cc1-3)OCO2` [BR, berberine chloride], the “SI (c) normal cells/cancer cells” value in series [1] is −1.1.
For the compound `O=C(N[C@H](CO)[C@H](O)c1ccc([N+](=O)[O-])cc1)C(Cl)Cl` [CA, chloramphenicol], the “SI (a) normal cells/diarrheagenic bacteria” value in series [2] came out at 1.8. Moreover, the “SI (b) probiotic bacteria/diarrheagenic bacteria” value in series [3] was −0.4. For the same compound, the “SI (c) normal cells/cancer cells” value in series [1] is given as −1.1.
With `CO/N=C(\C(=O)N[C@@H]1C(=O)N2C(C(=O)O)=C(CSc3nc(=O)c(=O)[nH]n3C)CS[C@H]12)c1csc(N)n1` [CF, ceftriaxone sodium], in series [2], the “SI (a) normal cells/diarrheagenic bacteria” value is given as 1.2. Moreover, the “SI (b) probiotic bacteria/diarrheagenic bacteria” value in series [3] is given as −0.4. Moreover, the “SI (c) normal cells/cancer cells” value in series [1] is listed as 0.
For the compound `Oc1c(Cl)cc(Cl)c2cccnc12` [CLX, 5,7-dichloroquinolin-8-ol], the “SI (b) probiotic bacteria/diarrheagenic bacteria” value in series [3] is listed as 1. In addition, the “SI (c) normal cells/cancer cells” value in series [1] is given as −0.7.
Take `O=S(=O)(O)c1cc(I)c(O)c2ncccc12` [FRN, 7-iodo-8-hydroxyquinoline-5-sulfonic acid]: the “SI (a) normal cells/diarrheagenic bacteria” value in series [2] is −1.2. The “SI (b) probiotic bacteria/diarrheagenic bacteria” value in series [3] was −0.3; in series [3] (listed as ferron), −1 to −0.03. Further, the “SI (c) normal cells/cancer cells” value in series [1] was −0.5.
Regarding `O=[N+]([O-])c1ccc(O)c2ncccc12` [NXL, 5-nitroquinolin-8-ol], the “SI (a) normal cells/diarrheagenic bacteria” value in series [2] is listed as −1.2. The “SI (b) probiotic bacteria/diarrheagenic bacteria” value in series [3] is reported as 0.2; in series [3] (listed as nitroxoline) it was 0.2–1.1. The “SI (c) normal cells/cancer cells” value in series [1] is listed as −0.6.
Consider `O=C(O)c1ccccc1O` [SA, salicylic acid], for which the “SI (a) normal cells/diarrheagenic bacteria” value in series [2] is reported as −0.7. Moreover, the “SI (b) probiotic bacteria/diarrheagenic bacteria” value in series [3] was −0.2. Also, the “SI (c) normal cells/cancer cells” value in series [1] is recorded as −1.1.
`C[n+]1cc2c3c(ccc2c2ccc4cc5c(cc4c21)OCO5)OCO3` [SG, sanguinarine chloride]: the “SI (a) normal cells/diarrheagenic bacteria” value in series [2] is listed as −1.9. Besides, the figures for the “SI (b) probiotic bacteria/diarrheagenic bacteria” value in series [3] and in series [3] (listed as sanguinarine) were −0.6 and −1 to −0.03, respectively. The “SI (c) normal cells/cancer cells” value in series [1] stood at 0.1.
On to `O=C(OC[C@H]1O[C@@H](OC(=O)c2cc(O)c(O)c(OC(=O)c3cc(O)c(O)c(O)c3)c2)[C@H](OC(=O)c2cc(O)c(O)c(OC(=O)c3cc(O)c(O)c(O)c3)c2)[C@@H](OC(=O)c2cc(O)c(O)c(OC(=O)c3cc(O)c(O)c(O)c3)c2)[C@@H]1OC(=O)c1cc(O)c(O)c(OC(=O)c2cc(O)c(O)c(O)c2)c1)c1cc(O)c(O)c(OC(=O)c2cc(O)c(O)c(O)c2)c1` [TA, tannic acid], for which the “SI (a) normal cells/diarrheagenic bacteria” value in series [2] is reported as −1.9. In series [3], the “SI (b) probiotic bacteria/diarrheagenic bacteria” value is −0.03. Also, the “SI (c) normal cells/cancer cells” value in series [1] is listed as −0.7.
`CN[C@H](CC(C)C)C(=O)N[C@H]1C(=O)N[C@@H](CC(N)=O)C(=O)N[C@H]2C(=O)N[C@H]3C(=O)N[C@H](C(=O)N[C@H](C(=O)O)c4cc(O)cc(O)c4-c4cc3ccc4O)[C@H](O)c3ccc(c(Cl)c3)Oc3cc2cc(c3O[C@@H]2O[C@H](CO)[C@@H](O)[C@H](O)[C@H]2O[C@H]2C[C@](C)(N)[C@H](O)[C@H](C)O2)Oc2ccc(cc2Cl)[C@H]1O` [VM, vancomycin hydrochloride]: in series [2], the “SI (a) normal cells/diarrheagenic bacteria” value amounted to 0.3. The “SI (b) probiotic bacteria/diarrheagenic bacteria” value in series [3] is recorded as −1. Moreover, the “SI (c) normal cells/cancer cells” value in series [1] is reported as 0.
